Assay results: doi:10.1101/2025.09.03.674015

Amino acid sequences for entries named in this document (tags omitted).
UniProt P18067: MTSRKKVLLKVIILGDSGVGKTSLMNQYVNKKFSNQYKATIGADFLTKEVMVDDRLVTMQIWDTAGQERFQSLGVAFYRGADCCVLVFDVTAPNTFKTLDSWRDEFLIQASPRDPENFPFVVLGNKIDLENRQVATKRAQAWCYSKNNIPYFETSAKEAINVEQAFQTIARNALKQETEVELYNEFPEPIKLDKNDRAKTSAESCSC
UniProt Q9JHU4: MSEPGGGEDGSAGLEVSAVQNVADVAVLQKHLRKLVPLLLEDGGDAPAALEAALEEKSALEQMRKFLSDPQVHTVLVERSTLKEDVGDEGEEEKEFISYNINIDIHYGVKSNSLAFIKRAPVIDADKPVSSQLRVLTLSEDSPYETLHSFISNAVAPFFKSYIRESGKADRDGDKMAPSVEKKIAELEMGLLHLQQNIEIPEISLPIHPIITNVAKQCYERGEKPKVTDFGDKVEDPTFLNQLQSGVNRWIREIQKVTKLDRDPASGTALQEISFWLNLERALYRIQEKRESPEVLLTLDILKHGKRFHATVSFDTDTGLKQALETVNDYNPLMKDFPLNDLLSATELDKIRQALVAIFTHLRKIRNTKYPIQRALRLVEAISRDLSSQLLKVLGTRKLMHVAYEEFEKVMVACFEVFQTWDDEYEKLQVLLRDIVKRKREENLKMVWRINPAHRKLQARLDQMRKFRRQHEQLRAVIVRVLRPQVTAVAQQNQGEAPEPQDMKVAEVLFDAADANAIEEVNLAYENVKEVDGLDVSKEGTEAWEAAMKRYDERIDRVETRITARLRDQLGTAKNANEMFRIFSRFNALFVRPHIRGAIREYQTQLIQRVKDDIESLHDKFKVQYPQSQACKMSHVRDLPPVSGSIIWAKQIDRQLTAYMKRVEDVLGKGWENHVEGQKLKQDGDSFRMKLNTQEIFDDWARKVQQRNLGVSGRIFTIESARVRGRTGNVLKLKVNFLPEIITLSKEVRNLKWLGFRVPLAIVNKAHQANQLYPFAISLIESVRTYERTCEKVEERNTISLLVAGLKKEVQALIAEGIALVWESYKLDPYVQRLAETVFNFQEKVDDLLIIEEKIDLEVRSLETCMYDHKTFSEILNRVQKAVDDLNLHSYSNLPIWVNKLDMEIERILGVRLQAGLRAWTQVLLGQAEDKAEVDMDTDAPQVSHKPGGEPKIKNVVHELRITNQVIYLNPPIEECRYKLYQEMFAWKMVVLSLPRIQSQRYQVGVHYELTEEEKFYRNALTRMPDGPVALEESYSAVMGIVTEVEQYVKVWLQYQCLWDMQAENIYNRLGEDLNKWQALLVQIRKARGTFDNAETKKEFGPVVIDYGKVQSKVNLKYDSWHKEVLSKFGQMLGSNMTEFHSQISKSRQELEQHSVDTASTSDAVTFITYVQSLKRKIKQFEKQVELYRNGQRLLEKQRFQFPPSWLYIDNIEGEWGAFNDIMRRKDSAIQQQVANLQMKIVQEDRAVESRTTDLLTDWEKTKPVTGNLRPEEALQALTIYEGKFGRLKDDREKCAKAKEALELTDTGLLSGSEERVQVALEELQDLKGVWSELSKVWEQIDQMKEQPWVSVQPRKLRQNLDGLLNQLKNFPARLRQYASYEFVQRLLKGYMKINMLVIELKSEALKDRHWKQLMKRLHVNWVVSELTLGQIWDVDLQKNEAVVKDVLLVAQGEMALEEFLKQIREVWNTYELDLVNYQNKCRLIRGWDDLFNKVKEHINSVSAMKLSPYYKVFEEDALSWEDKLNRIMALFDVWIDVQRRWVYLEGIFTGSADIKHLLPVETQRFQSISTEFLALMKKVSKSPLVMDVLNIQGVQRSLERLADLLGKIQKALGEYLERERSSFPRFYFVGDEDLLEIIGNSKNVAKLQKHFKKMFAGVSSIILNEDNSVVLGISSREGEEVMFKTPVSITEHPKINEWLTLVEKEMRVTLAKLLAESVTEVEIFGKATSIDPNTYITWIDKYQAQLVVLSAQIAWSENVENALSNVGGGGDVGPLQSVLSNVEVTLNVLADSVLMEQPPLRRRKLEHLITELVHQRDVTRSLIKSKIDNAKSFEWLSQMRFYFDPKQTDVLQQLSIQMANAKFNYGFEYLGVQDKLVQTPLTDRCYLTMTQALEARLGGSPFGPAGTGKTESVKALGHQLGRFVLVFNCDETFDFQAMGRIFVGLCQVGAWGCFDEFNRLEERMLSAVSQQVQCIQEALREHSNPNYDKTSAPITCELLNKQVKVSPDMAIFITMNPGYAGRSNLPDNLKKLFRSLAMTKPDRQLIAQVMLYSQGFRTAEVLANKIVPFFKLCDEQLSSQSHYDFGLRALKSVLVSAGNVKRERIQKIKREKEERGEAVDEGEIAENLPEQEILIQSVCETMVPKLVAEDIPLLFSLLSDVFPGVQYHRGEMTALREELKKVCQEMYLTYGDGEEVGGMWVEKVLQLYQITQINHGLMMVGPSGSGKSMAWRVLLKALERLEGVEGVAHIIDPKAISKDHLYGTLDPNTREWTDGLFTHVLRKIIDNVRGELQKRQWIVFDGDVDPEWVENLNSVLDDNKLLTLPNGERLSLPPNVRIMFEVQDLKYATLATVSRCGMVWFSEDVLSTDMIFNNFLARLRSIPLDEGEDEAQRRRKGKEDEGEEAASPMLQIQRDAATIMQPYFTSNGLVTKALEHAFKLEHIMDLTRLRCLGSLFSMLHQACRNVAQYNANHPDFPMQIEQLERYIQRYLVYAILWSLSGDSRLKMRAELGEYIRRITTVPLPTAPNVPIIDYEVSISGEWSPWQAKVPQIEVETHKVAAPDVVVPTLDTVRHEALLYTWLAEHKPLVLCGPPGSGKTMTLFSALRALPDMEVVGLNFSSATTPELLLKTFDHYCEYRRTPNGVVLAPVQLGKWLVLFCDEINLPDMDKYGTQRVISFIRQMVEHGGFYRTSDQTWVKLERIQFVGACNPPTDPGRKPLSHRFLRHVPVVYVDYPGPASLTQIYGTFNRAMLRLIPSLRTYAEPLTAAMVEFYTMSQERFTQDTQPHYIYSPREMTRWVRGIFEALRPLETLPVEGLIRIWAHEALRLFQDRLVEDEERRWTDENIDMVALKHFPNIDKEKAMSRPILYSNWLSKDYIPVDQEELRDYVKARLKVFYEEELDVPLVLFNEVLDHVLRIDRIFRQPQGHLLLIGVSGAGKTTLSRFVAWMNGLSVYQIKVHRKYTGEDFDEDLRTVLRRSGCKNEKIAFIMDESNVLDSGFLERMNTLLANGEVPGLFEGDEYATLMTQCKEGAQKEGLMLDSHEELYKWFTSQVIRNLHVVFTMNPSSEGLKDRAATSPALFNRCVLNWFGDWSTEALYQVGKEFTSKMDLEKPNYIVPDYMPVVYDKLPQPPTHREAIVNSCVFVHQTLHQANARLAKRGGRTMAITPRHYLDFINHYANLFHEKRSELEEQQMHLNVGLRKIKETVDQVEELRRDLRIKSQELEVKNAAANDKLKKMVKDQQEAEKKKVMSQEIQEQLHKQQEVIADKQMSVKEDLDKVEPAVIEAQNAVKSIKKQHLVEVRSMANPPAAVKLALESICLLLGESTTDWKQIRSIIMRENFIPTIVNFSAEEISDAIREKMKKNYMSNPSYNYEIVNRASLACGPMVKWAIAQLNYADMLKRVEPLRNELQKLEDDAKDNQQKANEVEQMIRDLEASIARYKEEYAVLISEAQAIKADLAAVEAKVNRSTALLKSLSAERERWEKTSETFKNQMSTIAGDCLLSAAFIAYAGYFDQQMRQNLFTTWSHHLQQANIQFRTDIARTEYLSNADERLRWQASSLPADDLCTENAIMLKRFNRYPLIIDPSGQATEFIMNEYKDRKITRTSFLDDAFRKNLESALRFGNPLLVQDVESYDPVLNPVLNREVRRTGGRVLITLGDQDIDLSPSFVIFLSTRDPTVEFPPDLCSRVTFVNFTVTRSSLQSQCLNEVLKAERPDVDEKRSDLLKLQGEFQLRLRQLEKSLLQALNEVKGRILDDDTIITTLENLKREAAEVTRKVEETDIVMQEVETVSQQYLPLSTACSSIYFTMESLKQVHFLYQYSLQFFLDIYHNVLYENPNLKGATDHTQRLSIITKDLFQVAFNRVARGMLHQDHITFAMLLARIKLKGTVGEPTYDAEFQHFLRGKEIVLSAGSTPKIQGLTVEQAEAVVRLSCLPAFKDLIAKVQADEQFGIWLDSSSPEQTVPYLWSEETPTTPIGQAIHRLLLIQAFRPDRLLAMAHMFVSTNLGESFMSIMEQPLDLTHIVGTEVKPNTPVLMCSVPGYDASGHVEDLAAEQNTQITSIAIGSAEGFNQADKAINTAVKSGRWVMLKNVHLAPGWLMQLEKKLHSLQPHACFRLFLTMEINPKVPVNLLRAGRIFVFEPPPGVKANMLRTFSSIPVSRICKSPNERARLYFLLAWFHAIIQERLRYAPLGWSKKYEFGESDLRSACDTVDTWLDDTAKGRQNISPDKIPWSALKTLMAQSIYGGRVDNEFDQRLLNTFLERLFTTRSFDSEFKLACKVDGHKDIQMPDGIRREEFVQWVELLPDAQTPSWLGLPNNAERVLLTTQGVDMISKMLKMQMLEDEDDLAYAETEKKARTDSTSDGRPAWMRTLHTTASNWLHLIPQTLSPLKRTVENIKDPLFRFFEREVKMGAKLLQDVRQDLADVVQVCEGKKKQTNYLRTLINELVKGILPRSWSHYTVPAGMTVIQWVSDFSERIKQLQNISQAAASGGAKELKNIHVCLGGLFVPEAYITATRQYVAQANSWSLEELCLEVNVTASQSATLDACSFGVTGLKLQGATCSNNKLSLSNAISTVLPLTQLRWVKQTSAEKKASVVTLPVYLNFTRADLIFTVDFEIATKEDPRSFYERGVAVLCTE

Target: recombinant GST-Rab7 phosphorylated in vitro by TBK1 (UniProt P18067)
Assay: affinity purification with mass spectrometry

- binding: binds
Substance: cytoplasmic dynein heavy chain (Dync1h1) (from UniProt Q9JHU4 1-4644)

These are yes or no findings as the source states them, for the method shown. Binding seen in cells or lysates may run through a third protein. A yes stands for co-enrichment or nearness to the bait. Other partners may have been found.
